For part of these data: The exact form of at least one protein or probe is not confirmed.
Experiments:
HgaI = assay: enzyme reaction in vitro; settings: purified recombinant protein, protein details: New England Biolabs
MphR (Escherichia coli) = assay: inhibition of the protein; settings: increasing MphR (0-3 uM) reduces HgaI/TMSD rate; NEBuffer 1.1; derepressed by erythromycin; purified recombinant protein; protein details: C-terminal His-tag (pET-28a)

ATAAAGACGCGAATATAACCGACGTGACTGTTACATTTAGGTGG (double strand) [S_Ery]
activity on this sequence (HgaI): active
activity on this sequence (MphR (Escherichia coli)): active

ATAAAGACGCTCCCTATCAGTGATAGAGA (double strand) [S_Tc]
activity on this sequence (HgaI; HgaI cleavage 5 nt downstream of GACGC, inhibited by TetR, restored by tetracycline, NEBuffer 1.1): active
